Measured values: patent US20250066490A1, “ANTI-CD70 ANTIBODIES, CONJUGATES THEREOF AND METHODS OF USING THE SAME” (ProfoundBio US Co., priority 2021, published 2025)
Some of these results come from one statement about several compounds together. Some ranges recur; such a range may be that of the whole group of compounds.

T1: CD70 ECD (Homo sapiens, UniProt P32970)
T1 sequence (P32970 39-193 limits assumed): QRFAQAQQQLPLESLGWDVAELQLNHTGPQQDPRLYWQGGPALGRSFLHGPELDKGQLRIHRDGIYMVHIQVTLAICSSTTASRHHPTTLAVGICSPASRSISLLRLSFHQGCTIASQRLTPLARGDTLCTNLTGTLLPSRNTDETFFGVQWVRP


Molecular target: T1, CD70 ECD
Assay: Biacore affinity measurement on immobilized CD70 ECD
Assay type: binding
Description: The immobilization of antigen CD70 ECD was performed at 25° C. with HBS-EP as the running buffer. Sensor chip surface of flow cells 1, 4 were activated by freshly mixed 50 mmol/L N-Hydroxy succinimide (NHS) and 200 mmol/L 1-ethyl-3-(3-dimethylaminopropyl) carbodiimide hydrochloride (EDC) for 420s (10 μL/min). Afterwards, CD70 antigen diluted in 10 mmol/L NaAC (pH 4.5) was injected into flow cell 4 to achieve conjugation of the appropriate Response Unit, while flow cell 1 was set as a blank. After the amine coupling reaction, the remaining active coupling sites on chip surface were blocked by 420s injection of 1 mol/L ethanolamine hydrochloride.
The assay was performed at 25° C. and the running buffer was HBS-EP. Diluted antibodies were injected over the surface of flow cells 1 and 4 during the association phase, followed by injecting running buffer as the dissociation phase. All the data were processed using Biacore T200 Evaluation software version 3.1. Flow cell 1 and a blank injection of buffer in each cycle were used as a double reference for Response Units subtraction. Kinetic data of the interaction between the antibodies and CD70 antigen were obtained through affinity measurement.

Molecule	affinity to CD70 antigen, fold greater than the parent antibody 69A7
1H8: anti-CD70 antibody clone, VH SEQ 5 and VL SEQ 6; scFv and full human IgG1/kappa (antibody, V domains shown) VH: QVQLQESGPGLVKPSETLSLTCTVSGGSVSSDYYYWSWIRQPPGKGLEWLGYIYYSGSTNYNPSLKSRVTISVDTSKNQFSLKLRSVTTADTAVYYCARGDGDFMGVCFDYWGQGTLVTVSS VL: EIVLTQSPATLSLSPGERATLSCRASQSVSSYLAWYQQKPGQAPRLLIFDASNRATGIPARFSGSGSGTDFTLTISSLEPEDFAVYYCQQRSNWPLTFGGGTKVEIK	3-8 fold
2A4: anti-CD70 antibody clone, VH SEQ 3 and VL SEQ 4; scFv and full human IgG1/kappa (antibody, V domains shown) VH: QVQLQESGPGLVKPSETLSLTCTVSGGSVSSDYYYWSWIRQPPGKGLEWLGYIYYSGSTNYNPSLKSRVTISVDTSKNQFSLKLRSVTTADTAVYYCARGDGDYGGNVFPYWGQGTLVTVSS VL: EIVLTQSPATLSLSPGERATLSCRASQSVSSYLAWYQQKPGQAPRLLIFDASNRATGIPARFSGSGSGTDFTLTISSLEPEDFAVYYCQQRSNWPLTFGGGTKVEIK	3-8 fold

Second part, the molecule after the results:

affinity to CD70 antigen, fold greater than the parent antibody 69A7	Molecule
3-8 fold	2D2: anti-CD70 antibody clone, VH SEQ 9 and VL SEQ 10; scFv and full human IgG1/kappa (antibody, V domains shown, left off: another chain or arm of the molecule; large carriers; small tags and cut ends, scFv and full human IgG1/kappa) VH: QVQLQESGPGLVKPSETLSLTCTVSGGSVSSDYYYWSWIRQPPGKGLEWLGYIYYSGSTNYNPSLKSRVTISVDTSKNQFSLKLRSVTTADTAVYYCARGDGDYGGNCFDYWGQGTLVTVSS VL: EIVLTQSPATLSLSPGERATLSCRASQSVSSYLAWYQQKPGQAPRLLIFDASNRATGIPARFSGSGSGTDFTLTISSLEPEDFAVYYCQQRLKFPLTFGGGTKVEIK
3-8 fold	2A4P0L1: new VH/VL combination derived from the VH of 2A4 and the VL of 2D2 (antibody, V domains shown) VH: QVQLQESGPGLVKPSETLSLTCTVSGGSVSSDYYYWSWIRQPPGKGLEWLGYIYYSGSTNYNPSLKSRVTISVDTSKNQFSLKLRSVTTADTAVYYCARGDGDYGGNVFPYWGQGTLVTVSS VL: EIVLTQSPATLSLSPGERATLSCRASQSVSSYLAWYQQKPGQAPRLLIFDASNRATGIPARFSGSGSGTDFTLTISSLEPEDFAVYYCQQRLKFPLTFGGGTKVEIK
